Experimental data: the supplement of paper PMC3334620
Whole data set: some 33,000 sequences, median “E-score (-0.5 to 0.5)” near -0.016, cut for the highest 2% near 0.3. The list shows a part of the results.

biological target: T1, Yer184c (UniProt P39961); test: PBM E-score (8-mer binding enrichment) (E-score (-0.5 to 0.5)); higher = stronger / more preferred TF binding; conditions: protein concentration: 100 nM; construct: GST-full length
T1 sequence: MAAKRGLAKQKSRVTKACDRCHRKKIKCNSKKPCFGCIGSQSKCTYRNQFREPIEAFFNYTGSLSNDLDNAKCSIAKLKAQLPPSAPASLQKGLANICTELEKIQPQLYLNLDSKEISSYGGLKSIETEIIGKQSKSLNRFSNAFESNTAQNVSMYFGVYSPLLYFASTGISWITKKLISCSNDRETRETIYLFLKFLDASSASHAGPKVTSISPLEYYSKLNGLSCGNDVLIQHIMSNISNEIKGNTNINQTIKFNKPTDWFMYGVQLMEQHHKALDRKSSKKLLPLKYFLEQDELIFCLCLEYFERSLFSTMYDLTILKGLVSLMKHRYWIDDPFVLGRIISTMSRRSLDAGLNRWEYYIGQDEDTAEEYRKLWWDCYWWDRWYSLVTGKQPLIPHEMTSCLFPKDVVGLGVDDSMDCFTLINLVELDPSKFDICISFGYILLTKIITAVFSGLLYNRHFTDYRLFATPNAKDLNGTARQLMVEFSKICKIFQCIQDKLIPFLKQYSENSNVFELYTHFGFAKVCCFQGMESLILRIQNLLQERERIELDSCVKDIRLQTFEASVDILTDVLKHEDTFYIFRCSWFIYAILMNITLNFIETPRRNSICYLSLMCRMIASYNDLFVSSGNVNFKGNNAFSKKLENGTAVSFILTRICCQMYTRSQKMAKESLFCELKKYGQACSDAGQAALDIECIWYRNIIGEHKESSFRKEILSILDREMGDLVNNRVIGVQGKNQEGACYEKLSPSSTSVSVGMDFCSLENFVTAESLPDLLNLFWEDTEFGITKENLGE
How it was run: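 Detection of bound protein used fluorescent anti-GST, with scans normalised by masliner. The proteins were GST-tagged yeast transcription factors applied at about 100-200 nM to universal all-10-mer Agilent arrays made double-stranded by primer extension. Each ungapped eight-base word, pooled with its reverse complement, was scored with an E-score from the Universal PBM Analysis Suite.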

| Sequence | PBM E-score |
| --- | --- |
| AGCTTGGA | -0.226 |
| ACAGGTCC | -0.101 |
| AATATCAA | 0.0839 |
| GATCGAAA | 0.214 |
| GAAGATTC | 0.155 |
| AAGAGTTC | -0.161 |
| GAAAGTTC | 0.0335 |
| ATAAGGTA | -0.177 |
| TCCTTCGA | 0.138 |
| GCTGCCGA | 0.292 |
| CCGCCTAA | -0.107 |
| GTACTCTA | -0.185 |
| ACAACGCT | -0.139 |
| AGTAGGTA | -0.0881 |
| GAACACTC | 0.13 |
| CTTTCGCC | 0.0134 |
| GATGACTA | -0.0929 |
| ATACTAGC | 0.0381 |
| CAATGTAC | -0.19 |
| GGATCAAC | 0.0815 |
| GATTTCCC | 0.114 |
| CGGCTAAC | 0.289 |
| AACGTTAA | 0.184 |
| ATTAGGAA | 0.17 |
| AGCGGACT | -0.092 |

Fetched one by one from the list above:

| Sequence | PBM E-score |
| --- | --- |
| AGCTTGGA | -0.226 |
| ACAACGCT | -0.139 |
| AAGAGTTC | -0.161 |
| CCGCCTAA | -0.107 |
| CTTTCGCC | 0.0134 |
| ATTAGGAA | 0.17 |

(continued)

| Sequence | PBM E-score |
| --- | --- |
| GATAGAAC | -0.0813 |
| ATTGCTGA | 0.0144 |
| AGATCTTC | 0.0511 |
| ATCCGGAC | 0.322 |
| ATAAAAAT | 0.204 |
| CTGTAATA | 0.154 |
| CCCGGGGA | 0.172 |
| AAGAACGC | 0.0542 |
| CTCGAGCC | -0.0783 |
| ATTGGTTG | -0.0771 |
| GAATGTAC | 0.0399 |
| ATTTACAC | -0.149 |
| CCCCATTA | -0.311 |
| CCGGCCAG | 0.26 |
| TCCTGTCA | 0.0498 |
| CTAGGAAG | -0.123 |
| AAGTTCGC | -0.0462 |
| ACTGCCCC | -0.228 |
| TCAGTAGA | 0.0655 |
| GGAATGAA | 0.139 |
| AAGTACAT | 0.0634 |
| CTTTAGAC | -0.1 |
| GTCTATTA | 0.0213 |
| CACCCGTG | -0.169 |
| CGTGGTTC | -0.0939 |

| Sequence | PBM E-score |
| --- | --- |
| AATTCCCC | 0.00037 |
| GGTGCGAC | -0.26 |
| CAATCTAC | -0.138 |
| GCTCGGCA | 0.288 |
| CTGAGTAC | -0.127 |
| CCGGCATA | 0.291 |
| CGTCTAAA | 0.0904 |
| CAGAATAA | 0.0674 |
| AGGCCTAG | -0.24 |
| AGTTCAAA | 0.224 |
| AACCCTAT | -0.0495 |
| GCATTATA | -0.109 |
| ATAAATAG | 0.186 |
| CTGCAGAC | -0.0366 |
| GCTCAATA | -0.0164 |
| CCAGATAC | -0.0832 |
| GTATGGAC | 0.0884 |
| GCGCACGA | -0.0973 |
| GGATATCA | 0.0177 |
| AAGGACCC | 0.0266 |
| AAGACCCT | -0.173 |
| GAAAATCC | 0.177 |
| ACGAGATA | 0.0452 |
| AACAATGC | 0.0511 |
| TCTCCACA | 0.0288 |

| Sequence | PBM E-score |
| --- | --- |
| CACTGCGG | 0.0813 |
| CAGAGGCC | -0.248 |
| AGGCGATG | -0.0512 |
| CGAACTCG | 0.153 |
| CCTCAGCA | -0.145 |
| GAGAGGAC | -0.128 |
| TTATAAAA | 0.252 |
| GAACTGTC | 0.00455 |
| ACTCGCAG | -0.094 |
| CCTATTCA | -0.199 |
| AACTCCCC | -0.0487 |
| TCTACTCA | -0.0395 |
| CACTTGGC | -0.16 |
| CCGTAATC | 0.072 |
| CCGTCGTA | -0.0403 |
| CCTTAGAG | -0.281 |
| ACGCGCGT | 0.102 |
| AAAGGGCT | -0.241 |
| AGCCTCGG | 0.101 |
| TATTATAA | 0.172 |
| AGATGTCA | 0.106 |
| ACGTACAC | -0.0472 |
| GGTTATGA | -0.0172 |
| AAGCTCCC | -0.206 |
| CAGGCTCA | -0.172 |

| Sequence | PBM E-score |
| --- | --- |
| GGTGATCA | -0.123 |
| AGACATTG | -0.0954 |
| ACGGAGTA | 0.202 |
| TACTGAAA | 0.189 |
| GGCTAAGA | -0.0206 |
| AACCAGTT | 0.126 |
| AGCGCCGG | 0.351 |
| CGTACACC | -0.103 |
| GCCCCGAC | -0.185 |
| CTGGCGTC | -0.234 |
| CACCCGAC | 0.0586 |
| AAGCGCCA | -0.208 |
| CCTTTTCA | -0.13 |
| ATTCCCTA | -0.0416 |
| AGTCCAAA | 0.0468 |
| ATTGTTGC | -0.00032 |
| ACTTCAAT | 0.193 |
| CCAAAACG | -0.0278 |
| TACACCAA | 0.0508 |
| CCACAGGA | -0.0996 |
| AAGAGCCC | -0.151 |
| AATAGTCT | -0.0793 |
| AGGCCACT | -0.27 |
| TCGCAGAA | -0.0754 |
| ATGTCGGC | 0.0293 |

| Sequence | PBM E-score |
| --- | --- |
| TACCAAGA | 0.0716 |
| AACTGCCC | -0.132 |
| CCCCAGCA | -0.253 |
| GCAGTTGA | -0.0141 |
| ACAGTTTC | 0.168 |
| ACGTGCGG | -0.196 |
| CTCTTCTA | 0.00022 |
| ATATCCTA | -0.0362 |
| GGATTTAC | 0.178 |
| CCCCACGG | -0.0904 |
| GAATCTCA | -0.0982 |
| CTCAGATC | -0.0567 |
| GAAGGTAA | 0.177 |
| GCTACATA | -0.0272 |
| CCACGACC | -0.19 |
| AGCTACTC | -0.0589 |
| AAAATGGG | -0.141 |
| CACATTAC | 0.0475 |
| AGCTCGGC | 0.316 |
| CGGTCATC | -0.0984 |
| AGCCACTA | -0.112 |
| GAGAAGGA | -0.183 |
| CACTATAG | -0.0432 |
| AGCCTGAT | -0.0829 |
| GGCGTCGA | 0.142 |

| Sequence | PBM E-score |
| --- | --- |
| ATACGCAC | 0.0199 |
| ATCGTCCA | -0.241 |
| TGTGGGAA | -0.207 |
| CCGACCTC | 0.0602 |
| CTCAGACA | -0.0841 |
| AATCATTG | -0.128 |
| ACGCCGTC | 0.0367 |
| ACTAATGC | 0.223 |
| AAGAACTG | -0.018 |
| CGGAGATC | 0.258 |
| CAACTCTA | -0.0145 |
| GTCAATAA | 0.158 |
| TATGATGA | 0.14 |
| ACCTTATG | -0.155 |
| CGCTACAA | 0.0421 |
| AAGTAATG | 0.0676 |
| AATGCTAG | -0.0812 |
| AGTTCGCC | 0.151 |
| ATGTGGCA | -0.1 |
| CGGACGGC | 0.182 |
| AAGCGATA | -0.0896 |
| CCGGGCCA | 0.14 |
